For this experiment, the target named is LAP-tagged E2A-PBX1 (human). The experiment in a line: affinity purification with mass spectrometry; LAP tandem purification from RCH-ACV cells stably expressing LAP-E2A-PBX1: GFP antibody beads, PreScission release, anti-Flag M2 gel, Flag peptide elution; LAP150 buffer (50 mM HEPES pH 7.4, 150 mM KCl, 0.3% NP-40); three independent experiments.

Results are given in words; binding and its absence hold for the method and conditions named. Binding seen in cells or lysates may run through a third protein. These calls come from enrichment with a bait or labelling near it, and not all partners need be listed.

B1: PBX3 (endogenous in RCH-ACV cells) (protein, UniProt P40426 1-434)
chain: MDDQSRMLQTLAGVNLAGHSVQGGMALPPPPHGHEGADGDGRKQDIGDILHQIMTITDQSLDEAQAKKHALNCHRMKPALFSVLCEIKEKTGLSIRGAQEEDPPDPQLMRLDNMLLAEGVSGPEKGGGSAAAAAAAAASGGSSDNSIEHSDYRAKLTQIRQIYHTELEKYEQACNEFTTHVMNLLREQSRTRPISPKEIERMVGIIHRKFSSIQMQLKQSTCEAVMILRSRFLDARRKRRNFSKQATEILNEYFYSHLSNPYPSEEAKEELAKKCSITVSQVSNWFGNKRIRYKKNIGKFQEEANLYAAKTAVTAAHAVAAAVQNNQTNSPTTPNSGSSGSFNLPNSGDMFMNMQSLNGDSYQGSQVGANVQSQVDTLRHVINQTGGYSDGLGGNSLYSPHNLNANGGWQDATTPSSVTSPTEGPGSVHSDTSN
For the molecule B1, the binding entry is recorded as “binds”.

B2: PBX2 (endogenous in RCH-ACV cells) (protein, UniProt P40425 1-430)
chain: MDERLLGPPPPGGGRGGLGLVSGEPGGPGEPPGGGDPGGGSGGVPGGRGKQDIGDILQQIMTITDQSLDEAQAKKHALNCHRMKPALFSVLCEIKEKTGLSIRSSQEEEPVDPQLMRLDNMLLAEGVAGPEKGGGSAAAAAAAAASGGGVSPDNSIEHSDYRSKLAQIRHIYHSELEKYEQACNEFTTHVMNLLREQSRTRPVAPKEMERMVSIIHRKFSAIQMQLKQSTCEAVMILRSRFLDARRKRRNFSKQATEVLNEYFYSHLSNPYPSEEAKEELAKKCGITVSQVSNWFGNKRIRYKKNIGKFQEEANIYAVKTAVSVTQGGHSRTSSPTPPSSAGSGGSFNLSGSGDMFLGMPGLNGDSYSASQVESLRHSMGPGGYGDNLGGGQMYSPREMRANGSWQEAVTPSSVTSPTEGPGSVHSDTSN
As for B2, the binding result is “binds”.

Values taken from paper PMC6426973, “Oligomeric self-association contributes to E2A-PBX1-mediated oncogenesis”.
